Binding data for seven substances are collected here from paper PMC6643034.

The target of assay [1] is T1, P1126_AMBCA (Amblyomma cajennense).
T1 sequence: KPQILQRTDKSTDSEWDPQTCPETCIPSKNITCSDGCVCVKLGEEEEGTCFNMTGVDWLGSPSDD
As to the kind of experiment: BLI; cross-binding screen on OctetRed; evasin held on a nickel-coated biosensor through its C-terminal His tag; each human chemokine at 300 nM; both purified. (Biolayer interferometry detects binding as a change in optical thickness at a sensor tip.)

Assay [2] concerns the target T2, P1172_IXORI (Ixodes ricinus) (UniProt V5I2G9).
T2 sequence: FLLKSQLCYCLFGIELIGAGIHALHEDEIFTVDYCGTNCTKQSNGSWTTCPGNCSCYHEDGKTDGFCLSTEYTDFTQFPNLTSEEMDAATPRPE
Described as above.

Assay [3] deals with T3, P1142_AMBCA (Amblyomma cajennense).
T3 sequence: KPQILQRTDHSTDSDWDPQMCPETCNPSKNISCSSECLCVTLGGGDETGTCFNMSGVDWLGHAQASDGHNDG
The assay is described as above.

The target of assay [4] is T4, EVA3_RHISA (Rhipicephalus sanguineus) (UniProt P0C8E8).
T4 sequence: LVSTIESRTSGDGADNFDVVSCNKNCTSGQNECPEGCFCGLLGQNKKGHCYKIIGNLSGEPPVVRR
The description is as above.

For assay [5], the target named is T5, Evasin 3 (EVA3) (Rhipicephalus sanguineus) (UniProt P0C8E8).
T5 sequence (chain, glycosylated (periodic acid–Schiff staining)): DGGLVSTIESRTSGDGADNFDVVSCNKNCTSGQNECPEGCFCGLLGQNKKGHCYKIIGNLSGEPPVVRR
As to the kind of experiment: BLI; OctetRed; evasin held on a nickel-coated biosensor by its C-terminal His tag; cross-binding screen of a panel of human chemokines at 300 nM; both purified.

These are yes or no findings as the source states them, for the method shown. For some of these results: Binding calls can cover weak binding; strength is not graded here. For some of these results: Tags and fused reporters may be left off the sequences shown.

For the substance CXCL8 (human) (ligand), the binding entry in assay [1] is reported as “no binding (tested: 300 nM)”; in assay [2], “binds”.
As to CCL14 (human) (ligand), the binding entry in assay [3], in assay [1], in assay [2] and in assay [4] was “no binding (tested: 300 nM)” throughout.
As to CXCL7 (human) (ligand), the binding result is “binds” in assay [3], “binds” in assay [1], “no binding (tested: 300 nM)” in assay [2] and “no binding (tested: 300 nM)” in assay [4].
Regarding CXCL4 (human) (ligand), the binding result is listed as “no binding (tested: 300 nM)” in assay [5]; “binds” in assay [3]; “binds” in assay [1]; “no binding (tested: 300 nM)” in assay [2]; “no binding (tested: 300 nM)” in assay [4].
On to CCL23 (human) (ligand), for which the binding entry in assay [3], in assay [1], in assay [2] and in assay [4] was “no binding (tested: 300 nM)” each time.
On to CCL15 (human) (ligand), for which the binding entry in assay [3], in assay [1], in assay [2] and in assay [4] was “no binding (tested: 300 nM)” throughout.
Turning to CXCL6 (human) (ligand), the binding entry is given as “binds” in assay [1] and “no binding (tested: 300 nM)” in assay [2].
